Data as given in PubChem BioAssay AID2685 (National Center for Advancing Translational Sciences (NCATS), 2010).
This is one part of the list. Shown are side measurements of this screen, not its main read-out; they come without a call. The list favours compounds with an active or inconclusive main result. The note in brackets gives the kind of curve behind each potency; many fits are weak.

Assay: qHTS Assay for Lipid Storage Modulators in Drosophila S3 Cells;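 as to cell number change: cells counted by Cell Tracker Red CMTPX staining in the red channel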
Settings: BODIPY lipid droplet fluorescence, 18-24 h; for cell number change: measured here: cell count max response, cells fed with added oleic acid
In short: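 Drosophila S3 cells loaded with oleic acid (400 uM, as added) and compounds at several concentrations; lipid droplets imaged by 488-nm laser-scanning cytometry, 500–530 nm intensity and object ratio to cell channel. Percent activity normalized to 20 uM Triacsin C.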

[1] = measured here: lipid fluorescence (Fed channel) AC50, cells fed with added oleic acid
[2] = measured here: cell number channel AC50, cells fed with added oleic acid

| Structure (SMILES) | cell number change [%] | AC50 [1] | AC50 [2] |
| --- | --- | --- | --- |
| CS(=O)(=O)c1ccc(Cl)c(NC(=O)C2CCCCN2S(=O)(=O)c2ccccc2)c1 (stereo not drawn) | -6.38 | 0.164 µM [falling, full curve, poor fit] |  |
| Clc1ccccc1/C=N/N1CCN(Cc2ccccc2)CC1 | -9.12 | 29.1 µM [rising, single point] |  |
| O=S(=O)(NCCN1CCOCC1)c1ccc(Oc2ccccc2Cl)cc1 |  | 20.6 µM [falling, single point] |  |
| CCCCn1c(N)c(N(CCOC)C(=O)C2CCN(S(=O)(=O)c3ccccc3)CC2)c(=O)[nH]c1=O |  | 5.17 µM [falling, partial curve] | 6.51 µM [falling, partial curve, poor fit] |
| O=C(Nc1ccc(C(=O)N2CCN(c3ccc(F)cc3)CC2)cc1)C1=CSCCO1 | 22.6 | 6.51 µM [rising, single point] | 0.184 µM [rising, full curve] |
| C=C(C)CNC(=S)NN=C1c2ccccc2-c2ccccc21 | -7.79 |  |  |
| FC(F)(F)c1ccc(Oc2ccc3cc(Br)ccc3c2)nc1 | -24.7 | 2.91 µM [falling, single point] |  |
| CN(C)CCN(C(=O)c1ccc(S(=O)(=O)N(C)c2ccccc2)cc1)c1nc2ccc(Cl)cc2s1 | -11.6 | 2.06 µM [falling, partial curve, poor fit] |  |
| COc1cccc(-c2c(NC(=O)c3ccco3)oc3ccccc3c2=O)c1 | 25.2 | 3.26 µM [rising, single point] |  |
| CCOc1ccc(N(CC(=O)Nc2cccc(C)c2C)S(=O)(=O)c2c(C)[nH]c(=O)[nH]c2=O)cc1 | -1.03 |  | 0.00461 µM [rising, full curve, poor fit] |
| Cc1cccc(NC(=O)CSc2nnc(-c3ccccc3)n2N)c1C | 30.1 | 25.9 µM [rising, partial curve, poor fit] | 0.13 µM [rising, full curve, poor fit] |
| CCc1ccc(C(=O)CSc2n[nH]c(-c3ccncc3)n2)cc1 | -41.6 |  |  |
| CCN1CCN(c2c(Cl)cccc2NC(=O)c2ccco2)CC1 |  | 1.64 µM [rising, partial curve] |  |
| CN(CC(=O)Nc1ccccc1C(=O)N1CCCC1)S(=O)(=O)c1ccc(Br)cc1 |  |  | 0.291 µM [falling, full curve, poor fit] |
| COc1ccc(NS(=O)(=O)c2ccc(-n3cnnn3)cc2)cc1OC | -51.2 | 4.11 µM [falling, single point] | 23.1 µM [falling, partial curve, poor fit] |

Filtered by structure, the entries above with an aryl thioether with sulfur outside any ring (2)

| Structure (SMILES) | cell number change [%] | AC50 [1] | AC50 [2] |
| --- | --- | --- | --- |
| Cc1cccc(NC(=O)CSc2nnc(-c3ccccc3)n2N)c1C | 30.1 | 25.9 µM [rising, partial curve, poor fit] | 0.13 µM [rising, full curve, poor fit] |
| CCc1ccc(C(=O)CSc2n[nH]c(-c3ccncc3)n2)cc1 | -41.6 |  |  |
